US12497637B1, “Stabilization of tryptamines by denaturing enzymes, optimizing ionization states, and controlling confounding variables” (Convergent Health Sciences LLC, priority 2025, dated 2025)
At least one structure is not confirmed: it was looked up by name or label, or the drawing left a doubt. Some results were stated once for a whole list of compounds, not compound by compound.

How the values were obtained:
[1] = Spontaneous dephosphorylation of phosphoryloxytryptamines in 100 millimolar phosphate buffers, 85 degrees Celsius, one hour, HPLC at 220 nanometers; conditions: for mole ratio phosphoryloxytryptamine to corresponding hydroxytryptamine / absorbance detected for the phosphoryloxytryptamine: 85 degrees Celsius, one hour
[2] = Ionization states of psilocybin in aqueous solution (Henderson-Hasselbalch)

C[N+](C)(C)CCc1c[nH]c2cccc(OP(=O)(O)O)c12 [aeruginascin, [2-(4-phosphonooxy-1H-indol-3-yl)ethyl]-trimethylazanium]
mole ratio zwitterionic to anionic species ([1]; sample at pH of 2.0): greater than 25,000:1 | mole ratio zwitterionic to cationic species ([1]; sample at pH of 2.0): less than 15:1 | mole ratio phosphoryloxytryptamine to corresponding hydroxytryptamine ([1]; sample at pH of 2.0): less than 9:1 | mole ratio zwitterionic to anionic species ([1]; sample at pH of 7.0): less than 1:2 | mole ratio zwitterionic to cationic species ([1]; sample at pH of 7.0): greater than 100,000:1 | mole ratio phosphoryloxytryptamine to corresponding hydroxytryptamine ([1]; sample at pH of 7.0): less than 9:1

CNCCc1c[nH]c2cccc(OP(=O)(O)O)c12 [baeocystin, [2-(4-phosphonooxy-1H-indol-3-yl)ethyl]-methylazanium]
mole ratio zwitterionic to anionic species ([1]; sample at pH of 2.0): greater than 25,000:1 | mole ratio zwitterionic to cationic species ([1]; sample at pH of 2.0): less than 15:1 | mole ratio phosphoryloxytryptamine to corresponding hydroxytryptamine ([1]; sample at pH of 2.0): less than 9:1 | mole ratio zwitterionic to anionic species ([1]; sample at pH of 7.0): less than 1:2 | mole ratio zwitterionic to cationic species ([1]; sample at pH of 7.0): greater than 100,000:1 | mole ratio phosphoryloxytryptamine to corresponding hydroxytryptamine ([1]; sample at pH of 7.0): less than 9:1

CN(C)CCc1c[nH]c2cccc(OP(=O)(O)O)c12 [psilocybin, reference compound]
amount of psilocybin existing as cationic psilocybin ([2]; pH of 2): about 17% | amount of psilocybin existing as cationic psilocybin ([2]; pH of 2.7): about 4% | absorbance detected for the phosphoryloxytryptamine ([1]; pH of 3.0 relative to pH of 2.0): Greater absorbance | absorbance detected for the phosphoryloxytryptamine ([1]; pH of 6.0 relative to pH of 7.0): Greater absorbance | mole ratio zwitterionic to anionic species ([1]; sample at pH of 2.0): greater than 25,000:1 | mole ratio zwitterionic to cationic species ([1]; sample at pH of 2.0): less than 15:1 | mole ratio phosphoryloxytryptamine to corresponding hydroxytryptamine ([1]; sample at pH of 2.0): less than 9:1 | mole ratio zwitterionic to anionic species ([1]; sample at pH of 7.0): less than 1:2 | mole ratio zwitterionic to cationic species ([1]; sample at pH of 7.0): greater than 100,000:1 | mole ratio phosphoryloxytryptamine to corresponding hydroxytryptamine ([1]; sample at pH of 7.0): less than 9:1
